## Primary screen of a compound library

Mtb glucose medium: 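Phenotypic screen: M. tuberculosis growth, glucose 7H9 medium, 3 days; the read-out is not stated. Concentration: 500 µM. Higher reads as more growth inhibition (inferred: compounds with an IC50 in retests scored well above the rest). Of about 18,000 compounds tested this way, about 1,400 (7.9%) reached 50% or more in at least one test.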
Mtb cholesterol medium: 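Whole-cell growth test on Mycobacterium tuberculosis, read after 4 days in a medium based on cholesterol and the lipid DPPC; the read-out is not stated. Compounds at 500 µM. Direction is inferred from retests: higher values go with more growth inhibition. Size under these conditions: about 18,000 compounds, about 900 of them at 50% or above in at least one test.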

The filed quantity is “Percent Effect” (%). How 0% and 100% were set is not recorded. Most values in the screen are low, and negative values occur. This is an unselected part of the compounds tested.

| structure | Mtb glucose medium | Mtb cholesterol medium |
|---|---|---|
| `CNC(CO)c1cccc(Cl)c1Cl` (centres undefined) | 23.85% | 24.26% |
| `Cc1ccc(CN2CCC(C3CCNC3)CC2)nc1` (centres undefined) | 5.792% | 0.2653% |
| `CC1(C#N)CCNC1` (centres undefined) | 3.126% | 2.484% |
| `Clc1cnn(CCN2CCC3(CCNCC3)C2)c1` | -1.326% | 5.709% |
| `Cc1ccccc1CNc1nnc(CO)s1` | 22.79% | -2.994% |
| `CC(=O)NCCC1CCCNC1` (centres undefined) | 6.656% | 3.895% |
| `CCn1nnnc1SCc1cc(C#N)ccc1F` | 70.1% | 70.7% |
| `CN(Cc1ccccc1)C1=NS(=O)(=O)c2ccccc21` | -15.49% | -16.78% |
| `COCCC1(C(=O)N2CCC(CO)C2)CCC1` (centres undefined) | 31.32% | 25.19% |
| `c1cc(NCC2CCCO2)cnn1` (centres undefined) | 20.52% | 3.366% |
| `O=C(Nc1ccc2[nH]ncc2c1)C1CCCO1` (centres undefined) | 26.17% | 13.04% |
| `CCNC(=O)C1CC(=O)N(C2CCCCC2)C1` (centres undefined) | 7.779% | -6.379% |
| `O=C(NCC1CCCNC1)OCc1ccccc1` (centres undefined) | 20.23% | 14.15% |
| `CN(C)C(=O)c1csc(N2CCCCC2)n1` | 53.91% | 38.88% |
| `CNCc1cnn(-c2ccccc2)c1` | 7.208% | -10.8% |
| `Cc1cnc(C(=O)NCCCc2ccccn2)cn1` | 57.77% | 42.11% |
| `O=C(CCc1ccco1)NCC(O)c1ccccc1F` (centres undefined) | 30.43% | 28.93% |
| `O=C(Cn1cc(Br)ccc1=O)NCCC1=CCCCC1` | -4.592% | 14.89% |
| `Cc1cccc(C[S+]([O-])CC(=O)NCC2CC2)c1` (centres undefined) | 51.98% | 52.46% |
| `Clc1cnn(CCN2CCCC3(CCOCC3)C2)c1` | 1.184% | 9.287% |
| `N#CCC1COc2ccccc2O1` (centres undefined) | 25.99% | 25.01% |
| `CC(CC(=O)NCc1ccccc1)n1cccn1` (centres undefined) | 9.922% | -7.092% |
| `CCNC(=O)COC(=O)c1n[nH]c2ccccc12` | 23.23% | -9.173% |
| `CN(C)C(=O)c1cc(C2CC2)nn1-c1ccccc1` | 35.59% | 21.46% |
| `Cc1noc(C(C)Nc2ccc3c(c2)CCC(=O)N3)n1` (centres undefined) | -5.065% | -13.52% |
| `CS(=O)(=O)CCSC1CCCCNC1=O` (centres undefined) | 6.566% | 6.954% |
| `OC(CN1CCOC2(CCCC2)C1)c1ccccc1` (centres undefined) | 62.46% | 52.75% |
| `CCc1noc(C2=NNC(=O)CC2)n1` | -2.815% | -6.448% |
| `COc1cc2c(c(OC)c1OC)CC(N)CCC2` (centres undefined) | 33.39% | -16.63% |
| `CN(CC(=O)N1CCNC1=O)Cc1ccc(Cl)s1` | 8.255% | 1.008% |
| `O=C(Cn1nnc(-c2ccccc2)n1)N1CCCC1` | 45.05% | 41.01% |
| `Cc1[nH]ncc1S(=O)(=O)N(C)Cc1ccncc1` | 7.535% | 0.5315% |
| `O=C(CN(Cc1cccs1)C1CC1)N1CCNC1=O` | 12.01% | 4.023% |
| `O=C(Nc1cccc(Cl)c1)N1CCCNCC1` | 32.17% | 15.45% |
| `CC(NC(=O)c1ccccc1)C(=O)NC(C)(C)C` (centres undefined) | 29.29% | 15.77% |
| `CC(C)CN(CC(N)=O)S(=O)(=O)N(C)C1CCCCC1` | 31.03% | 29.12% |
| `CCOC1CCN(C(C(N)=O)c2ccccc2)CC1` (centres undefined) | -0.07924% | -5.421% |
| `CNC1CCN(C(=O)C2(N)Cc3ccccc3C2)CC1` | 10.44% | 19.54% |
| `CCOCCC(=O)N1CCCC(O)(C(F)(F)F)C1` (centres undefined) | -5.743% | -6.424% |
| `CC(C)C[C@H](N)C(=O)N(C)c1ccccc1` | 64.58% | 28.77% |
| `COc1cc(NC(=O)N2CCCN(C)CC2)ccc1Cl` | 29.47% | 7.824% |
| `c1cc(CC2CCNCC2)ccn1` | -8.581% | 2.109% |

Source: ChEMBL document CHEMBL3988442, “University of Dundee, Small-Polar-MMV Screening Library” (2021).